The text below walks through data of patent US9382257B2, “Substituted pyrrolo[2,3-b]pyrazines as serine/threonine kinase inhibitors” (Genentech, Inc., priority 2002, dated 2016).

Protein sequences, listed by entry. Tags and fused reporters are not part of them. Residues count along the entry.
UniProt P28482, 8-360 limits assumed: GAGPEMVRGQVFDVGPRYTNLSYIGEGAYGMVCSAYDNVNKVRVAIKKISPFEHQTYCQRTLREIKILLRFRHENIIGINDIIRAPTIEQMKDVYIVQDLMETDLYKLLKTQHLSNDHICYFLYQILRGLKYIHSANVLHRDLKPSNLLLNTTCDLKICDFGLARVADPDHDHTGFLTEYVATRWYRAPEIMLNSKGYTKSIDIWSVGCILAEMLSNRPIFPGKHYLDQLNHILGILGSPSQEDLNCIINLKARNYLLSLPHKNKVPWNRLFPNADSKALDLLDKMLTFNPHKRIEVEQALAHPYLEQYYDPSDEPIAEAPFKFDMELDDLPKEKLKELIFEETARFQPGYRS

The match of structure and compound is tentative.

The test system of experiment [1] is PMA-stimulated P90RSK(Ser380) phosphorylation in HepG2 cells. Description: Cellular P90RSK(Ser380) Phosphorylation Assay (Example 4). Conditions: read-out: RSK Inhibition IC50, 1.5 hour compound incubation, PMA 100 ng/mL, normalized to GAPDH. The method, then:
Cellular P90RSK(Ser380) Phosphorylation Assay
Inhibition of PMA-stimulated P90RSK(Ser380) phosphorylation was determined by the following in vitro cellular mechanistic assay, which comprises incubating cells with a compound for 1.5 hours and quantifying fluorescent pP90RSK(Ser380) signal on fixed cells and normalizing to GAPDH signal.
Materials and Methods: HepG2 cells were obtained from ATCC and grown in DMEM supplemented with 10% fetal bovine serum. Cells were plated in 96-well plates at 35,000 cells/well and allowed to attach overnight at 37° C./5% CO2. Diluted compounds were then added at a final concentration of 0.5% DMSO. After 1.5 hour compound incubation, cells were stimulated with the addition of PMA (phorbol 12-myristate 13-acetate) at a final concentration of 100 ng/mL; the PMA stimulation was a 30-minute incubation at 37° C./5% CO2. After the 30-minute PMA stimulation, cells were washed with PBS and fixed in 3.7% formaldehyde in PBS at room temperature for 15-20 minutes. This was followed by another wash in PBS and then permeabilization in 100% MeOH at room temperature for 10-15 minutes. […] Cells were then washed and analyzed for fluorescence at both wavelengths using the Odyssey Infrared Imaging System (LI-COR Biosciences). […]

Experiment [2] has as its target human ERK-2 (Mitogen Activated Kinase 1) (Homo sapiens, UniProt P28482). Nature of the experiment: ERK-2 Enzymatic Assay (Example 2). The note with it: read-out: ERK Inhibition IC50, Omnia peptide S/T17, 25 μM ATP.

On to `Cc1[nH]ncc1-c1cnc2[nH]cc(-c3cnn(Cc4ccc(OC(F)(F)F)cc4)c3)c2n1`, for which the IC50 stood at 99.4 nM in experiment [1] and 17.9 nM in experiment [2].
